Experimental findings from article PMC5691636 are described below.

Sequences of proteins named here, by UniProt entry; tags and fusion partners are left off. A change or cut given only in a name is not applied to a line headed by its entry. A line that says so, or that is headed by a name, gives the form on record, which may keep a tag or linker. Residues count along the entry.
UniProt O75928: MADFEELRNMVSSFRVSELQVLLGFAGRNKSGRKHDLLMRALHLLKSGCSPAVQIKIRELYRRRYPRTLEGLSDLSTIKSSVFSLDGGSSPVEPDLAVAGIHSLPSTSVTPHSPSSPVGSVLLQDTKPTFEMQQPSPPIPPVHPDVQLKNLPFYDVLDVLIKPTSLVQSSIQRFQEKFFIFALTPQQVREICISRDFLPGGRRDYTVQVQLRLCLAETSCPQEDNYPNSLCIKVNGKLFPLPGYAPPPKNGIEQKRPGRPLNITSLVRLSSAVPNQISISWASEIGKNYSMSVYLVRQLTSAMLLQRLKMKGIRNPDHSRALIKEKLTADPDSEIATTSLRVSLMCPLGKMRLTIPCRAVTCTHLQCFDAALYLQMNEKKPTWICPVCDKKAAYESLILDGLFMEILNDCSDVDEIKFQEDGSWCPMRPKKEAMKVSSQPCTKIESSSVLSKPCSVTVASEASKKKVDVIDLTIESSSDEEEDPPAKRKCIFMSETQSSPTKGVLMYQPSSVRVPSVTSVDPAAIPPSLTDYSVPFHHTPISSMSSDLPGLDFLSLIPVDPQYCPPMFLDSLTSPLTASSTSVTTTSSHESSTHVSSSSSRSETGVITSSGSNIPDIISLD
HCV NS3 protein of genotype 2a (JFH1), FLAG-tagged (Hepatitis C virus genotype 2a (JFH1)) (Q99IB8, residues 1031-1661): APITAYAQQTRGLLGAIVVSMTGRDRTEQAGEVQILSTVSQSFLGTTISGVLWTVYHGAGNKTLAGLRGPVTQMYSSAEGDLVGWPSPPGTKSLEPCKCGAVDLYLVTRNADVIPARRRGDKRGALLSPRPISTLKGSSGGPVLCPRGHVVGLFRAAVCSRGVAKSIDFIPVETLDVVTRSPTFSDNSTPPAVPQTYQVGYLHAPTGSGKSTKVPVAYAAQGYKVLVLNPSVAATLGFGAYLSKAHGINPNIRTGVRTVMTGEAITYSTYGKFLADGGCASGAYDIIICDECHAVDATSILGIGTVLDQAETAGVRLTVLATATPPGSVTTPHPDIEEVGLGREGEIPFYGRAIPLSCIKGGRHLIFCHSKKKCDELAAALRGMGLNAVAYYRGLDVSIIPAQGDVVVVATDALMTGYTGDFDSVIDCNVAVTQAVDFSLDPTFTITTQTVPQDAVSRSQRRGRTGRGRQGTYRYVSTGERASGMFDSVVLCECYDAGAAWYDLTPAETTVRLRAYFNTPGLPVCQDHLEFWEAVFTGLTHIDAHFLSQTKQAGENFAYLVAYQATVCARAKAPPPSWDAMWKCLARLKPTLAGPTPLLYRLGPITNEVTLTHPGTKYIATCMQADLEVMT
HCV NS5A protein of genotype 2a (JFH1), FLAG-tagged (Hepatitis C virus genotype 2a (JFH1)) (Q99IB8, residues 1977-2442): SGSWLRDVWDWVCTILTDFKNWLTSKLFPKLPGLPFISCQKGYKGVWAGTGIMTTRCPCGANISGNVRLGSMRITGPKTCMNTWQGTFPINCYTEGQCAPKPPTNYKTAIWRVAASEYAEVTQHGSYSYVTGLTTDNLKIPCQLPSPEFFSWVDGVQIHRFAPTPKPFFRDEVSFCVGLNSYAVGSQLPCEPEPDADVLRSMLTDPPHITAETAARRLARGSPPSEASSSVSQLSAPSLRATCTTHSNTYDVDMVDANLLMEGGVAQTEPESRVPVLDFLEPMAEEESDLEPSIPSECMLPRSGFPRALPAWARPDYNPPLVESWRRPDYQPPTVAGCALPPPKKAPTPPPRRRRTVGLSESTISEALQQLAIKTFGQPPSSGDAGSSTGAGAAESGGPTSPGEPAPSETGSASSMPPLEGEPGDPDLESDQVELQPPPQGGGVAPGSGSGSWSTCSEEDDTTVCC

These are yes or no findings as the source states them, for the method shown. In cells and extracts the contact can be indirect.

Holding throughout (assay): co-IP
For assay [1], the target named is protein inhibitor of activated STAT2 (PIAS2), HA-tagged (human) (UniProt O75928).
Assay [2] deals with HCV NS5A protein of genotype 2a (JFH1), FLAG-tagged (Hepatitis C virus genotype 2a (JFH1)) (UniProt Q99IB8).
Assay [3] deals with HCV NS3 protein of genotype 2a (JFH1), FLAG-tagged (Hepatitis C virus genotype 2a (JFH1)) (UniProt Q99IB8).

As for “HCV NS3 protein of genotype 2a (JFH1), FLAG-tagged (from UniProt Q99IB8 1031-1661)”, the binding result in assay [1] is “no binding”.
Same read-out and setting: as for “HCV NS5A protein of genotype 2a (JFH1), FLAG-tagged (from UniProt Q99IB8 1977-2442)”, the entry is “no binding”.
As for “protein inhibitor of activated STAT2 (PIAS2), HA-tagged (from UniProt O75928-1 1-621)”, the binding result in assay [2] and in assay [3] was “no binding” each time.
